Test results taken from article PMC6465078 (Molecular pharmaceutics, 2018).

Assays:
OSTα/β = target: T1, OSTα/β (Homo sapiens, UniProt Q86UW1); assay: Inhibition of OSTα/β-mediated DHEAS uptake in OSTα/β-overexpressing Flp-In 293; assay type: cell-based
T1 sequence (Q86UW1 1-340): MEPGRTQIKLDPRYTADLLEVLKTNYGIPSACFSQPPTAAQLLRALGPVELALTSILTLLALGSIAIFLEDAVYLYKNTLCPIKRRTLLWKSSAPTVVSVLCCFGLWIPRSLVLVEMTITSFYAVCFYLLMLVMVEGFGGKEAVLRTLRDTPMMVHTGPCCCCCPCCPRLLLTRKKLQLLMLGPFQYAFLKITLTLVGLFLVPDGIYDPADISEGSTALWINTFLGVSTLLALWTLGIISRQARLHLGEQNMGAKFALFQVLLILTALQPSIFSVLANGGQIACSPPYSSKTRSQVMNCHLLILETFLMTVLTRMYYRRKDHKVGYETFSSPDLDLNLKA
T1 sequence (Q86UW2 1-128 partner): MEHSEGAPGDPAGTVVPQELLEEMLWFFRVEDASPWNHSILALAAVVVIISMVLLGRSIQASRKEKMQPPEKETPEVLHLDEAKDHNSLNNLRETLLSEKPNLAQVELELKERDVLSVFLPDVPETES

[1] = cited from earlier work

| Compound | inhibition at 100 µM (OSTα/β; Flp-In-293, read-out: Inhibition of OSTα/β-mediated DHEAS uptake (screening)) [%] | Maximal inhibition of OSTα/β-mediated DHEAS uptake (OSTα/β; Method 1, up to 200 µM inhibitor, DHEAS 4 µM) | Associated cases of DILI [1] | Inhibition of OSTα/β-mediated DHEAS uptake (screening) (OSTα/β; Method 1 (10 min preincubation), test compound 100 µM, DHEAS 4 µM, 30 s uptake) |
| --- | --- | --- | --- | --- |
| CC(C)c1c(C(=O)Nc2ccccc2)c(-c2ccccc2)c(-c2ccc(F)cc2)n1CC[C@@H](O)C[C@@H](O)CC(=O)O [atorvastatin] | 35 to 64 | less than 50% | more than 100 cases | – |
| CCCCc1oc2ccccc2c1C(=O)c1cc(I)c(OCCN(CC)CC)c(I)c1 [amiodarone] | – | – | more than 100 cases | decreased |
